Experimental data taken from patent US20220339194A1 (A2 BIOTHERAPEUTICS, published 2022).

Biological target: HLA-A*02 on target cells
Assay: cell-based or functional assay

B1: HLA-A*02 LIR1 inhibitory receptor C-1765 (mPA2.1) (receptor)
chain: DVLMTQTPLSLPVSLGDQASISCRSSQSIVHSNGNTYLEWYLQKPGQSPKLLIYKVSNRFSGVPDRFSGSGSGTDFTLKISRVEAEDLGVYYCFQGSHVPRTSGGGTKLEIKGGGGSGGGGSGGGGSGGQVQLQQSGPELVKPGASVRISCKASGYTFTSYHIHWVKQRPGQGLEWIGWIYPGNVNTEYNEKFKGKATLTADKSSSTAYMHLSSLTSEDSAVYFCAREEITYAMDYWGQGTSVTVSSYGSQSSKPYLLTHPSDPLELVVSGPSGGPSSPTTGPTSTSGPEDQPLTPTGSDPQSGLGRHLGVVIGILVAVILLLLLLLLLFLILRHRRQGKHWTSTQRKADFQHPAGAVGPEPTDRGLQWRSSPAADAQEENLYAAVKHTQPEDGVEMDTRSPHDEDPQAVTYAEVKHSRPRREMASPPSPLSGEFLDTKDRQAEEDRQMDTEAAASEAPQDVTYAQLHSLTLRREATEPPPSQEGPSPAVPSIYATLAIH
IC50 (molecules/cell), inhibition of Jurkat NFAT luciferase activation, mRNA titration in HeLa; construct CT1110 (CT292 + Murine blocker): 28000 molecules/cell | IC50 (molecules/cell), inhibition of Jurkat NFAT luciferase activation, mRNA titration in HeLa; construct CT1112 (CT299 + Murine blocker): 33700 molecules/cell | IC50 (molecules/cell), inhibition of Jurkat NFAT luciferase activation, mRNA titration in HeLa; construct CT1113 (CT1094 + Murine blocker): 38800 molecules/cell
